In PMC8446001:
No constants are given. Whether binding was seen depends on the method and setting. In cells and extracts the contact can be indirect. Binding can be weak; no strength is given.

Biological target: GST-GlialCAMCt (GST fusion protein containing the C-terminal tail of GlialCAM)
Assay: pull-down; glutathione-Sepharose bound GST-GCAM incubated with HeLa cell lysates (0.4 mg) expressing MLC1 for 2 h at 4 °C; beads washed; SDS-PAGE and Western blot; GST alone as control; only the target purified

Row | Binder | binding
1 | 2HA-MLC1 wild type (megalencephalic leukoencephalopathy with subcortical cysts 1) (protein, UniProt Q15049 1-377) MTQEPFREELAYDRMPTLERGRQDPASYAPDAKPSDLQLSKRLPPCFSHKTWVFSVLMGSCLLVTSGFSLYLGNVFPAEMDYLRCAAGSCIPSAIVSFTVSRRNANVIPNFQILFVSTFAVTTTCLIWFGCKLVLNPSAININFNLILLLLLELLMAATVIIAARSSEEDCKKKKGSMSDSANILDEVPFPARVLKSYSVVEVIAGISAVLGGIIALNVDDSVSGPHLSVTFFWILVACFPSAIASHVAAECPSKCLVEVLIAISSLTSPLLFTASGYLSFSIMRIVEMFKDYPPAIKPSYDVLLLLLLLVLLLQAGLNTGTAIQCVRFKVSARLQGASWDTQNGPQERLAGEVARSPLKEFDKEKAWRAVVVQMAQ | binds
2 | 2HA-MLC1-P92S (protein, UniProt Q15049 1-377) MTQEPFREELAYDRMPTLERGRQDPASYAPDAKPSDLQLSKRLPPCFSHKTWVFSVLMGSCLLVTSGFSLYLGNVFPAEMDYLRCAAGSCISSAIVSFTVSRRNANVIPNFQILFVSTFAVTTTCLIWFGCKLVLNPSAININFNLILLLLLELLMAATVIIAARSSEEDCKKKKGSMSDSANILDEVPFPARVLKSYSVVEVIAGISAVLGGIIALNVDDSVSGPHLSVTFFWILVACFPSAIASHVAAECPSKCLVEVLIAISSLTSPLLFTASGYLSFSIMRIVEMFKDYPPAIKPSYDVLLLLLLLVLLLQAGLNTGTAIQCVRFKVSARLQGASWDTQNGPQERLAGEVARSPLKEFDKEKAWRAVVVQMAQ | binds
3 | 2HA-MLC1-C326R (protein, UniProt Q15049 1-377) MTQEPFREELAYDRMPTLERGRQDPASYAPDAKPSDLQLSKRLPPCFSHKTWVFSVLMGSCLLVTSGFSLYLGNVFPAEMDYLRCAAGSCIPSAIVSFTVSRRNANVIPNFQILFVSTFAVTTTCLIWFGCKLVLNPSAININFNLILLLLLELLMAATVIIAARSSEEDCKKKKGSMSDSANILDEVPFPARVLKSYSVVEVIAGISAVLGGIIALNVDDSVSGPHLSVTFFWILVACFPSAIASHVAAECPSKCLVEVLIAISSLTSPLLFTASGYLSFSIMRIVEMFKDYPPAIKPSYDVLLLLLLLVLLLQAGLNTGTAIQRVRFKVSARLQGASWDTQNGPQERLAGEVARSPLKEFDKEKAWRAVVVQMAQ | binds
